In PMC11373843:
Like-named read-outs stand apart in the source and are kept apart here. Results are given in words; binding and its absence hold for the method and conditions named. In cells and extracts the contact can be indirect. A yes stands for co-enrichment or nearness to the bait. Other partners may have been found.

By UniProt entry, the sequences of proteins in these tests, tags left out. Where a name states a change or a piece, a line headed by the entry shows the natural chain unless it says otherwise.
UniProt Q95Y26: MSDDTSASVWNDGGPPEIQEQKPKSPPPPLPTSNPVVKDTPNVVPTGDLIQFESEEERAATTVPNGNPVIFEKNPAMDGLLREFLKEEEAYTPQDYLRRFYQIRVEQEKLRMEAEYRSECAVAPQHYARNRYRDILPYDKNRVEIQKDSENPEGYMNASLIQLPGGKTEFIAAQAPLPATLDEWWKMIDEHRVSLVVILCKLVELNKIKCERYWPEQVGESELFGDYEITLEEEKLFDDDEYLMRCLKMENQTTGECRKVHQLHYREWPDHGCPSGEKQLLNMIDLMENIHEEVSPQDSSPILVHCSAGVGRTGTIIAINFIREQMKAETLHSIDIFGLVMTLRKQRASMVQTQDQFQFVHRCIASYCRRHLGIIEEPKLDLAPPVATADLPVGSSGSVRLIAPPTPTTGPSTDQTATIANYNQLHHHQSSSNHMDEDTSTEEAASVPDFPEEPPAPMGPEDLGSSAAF
UniProt Q21253: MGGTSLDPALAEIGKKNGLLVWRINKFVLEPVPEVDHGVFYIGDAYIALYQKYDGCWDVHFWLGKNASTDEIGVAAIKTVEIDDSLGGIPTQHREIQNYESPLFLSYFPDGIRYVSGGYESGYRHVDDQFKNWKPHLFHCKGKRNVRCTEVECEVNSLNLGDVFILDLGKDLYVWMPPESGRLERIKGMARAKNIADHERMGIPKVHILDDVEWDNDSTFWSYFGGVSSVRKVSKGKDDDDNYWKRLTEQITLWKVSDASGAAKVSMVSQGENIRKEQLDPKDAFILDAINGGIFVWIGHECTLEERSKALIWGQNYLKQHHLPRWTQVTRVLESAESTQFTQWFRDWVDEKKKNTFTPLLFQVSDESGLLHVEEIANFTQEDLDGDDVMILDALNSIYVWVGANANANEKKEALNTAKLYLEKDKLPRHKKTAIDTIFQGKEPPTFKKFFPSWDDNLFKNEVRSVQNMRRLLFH

B1: CAP-1 (protein, UniProt P34685 1-282)
chain: MSEISDAEKVRIASDFIKHAPPGEFNEVFNSVRMLLENDDLLKNKCVNAIAQYNVGQFVPVKLDGVAKQTLITPYNDLGNGRFYDEVSKKSFKYDHVRKEAADLQPHPAESGITEQWRQALQTQLDIYIDDHYAKSGTGVVFARNGVFTICIESHQFQPKNFCNGRWRSEWNVPVGDGKSGSQEMKGKILSQVHYYEDGNVQLFSEKEPVLKVNVSADFDKTAKEIIHAISEEETIYQNAVQENYANMSDTTFKALRRQLPVTRAKMDWNKAQTYRIGQEMK
B2: CAP-2 (protein, UniProt P34686 1-270)
chain: MGEQQLDCALDLMRRLPPQHCDKNLTDLIDLCPHLVDDLLSTIDQPLKIAADRETGKQYLLCDYNRDGDSYRSPWSNTYDPPLEDGQLPSEKRRKMEIEANAAFESYRDLYFEGGVSSVYFWDLDNGGFAGIVLIKKEGDGAKNITGCWDSIHVIEITERARQAHYKLTSTIMLWLQTNKSSSGVMNLGGSLTRQHEMDAPINDQNTHLANMGRMIEDQESKMRLTINEIYFGKTKKVMSDLRSTEKQSELEKQDEIVRELNNAMANRGN
B3: PAT-12 (protein, UniProt Q95QA6 1-663)
chain: MTSHIATETSVNRWSTEPVVREEGRPPGPEDFPSTKQGREQDGNVIGITPNYKIGEQKPNSELNLGKTGSLPRGSGDYKMTYRQEDYKQTIIDPKVITNANMPYISTRIPDPRRNLAGDFPSEHSKSKIKLDPLEQRRFRSSESRPITTSNYLAESVDRHREMEASRLREYLKAKENEANQPWNKPGWPGPKKNDESLRELETMKQRIETLKRDANKGPVNAELDELSKRAEELRKRDGWSKYKLVESDIYKTDPDPMPANIKDQVRDLLESRNSVETTTTQRDHDKSGYVTDVSTATWNFSTVDYSPRSVVSMNGASHDILKDDKPRSIMKRNDLVRREQMLYPTVDTQVVKSVVKKPTVTETVQRFEETRRTEEVERRVQRREKKERRSRHHSSSRHHSGWEGHTGGYQGHRSSSLSRGGHGGGGQETYYRQETTRRQQHNNYDDNFNRGIAHARYGSLSDSLRRGELQYVPNGEVRQSFYRDGSNGGQRMHKSYSTRDVFTGDGYDDRRSVSSFRRGSQQQVSPFVEFPPTLPRRGGGGDYRREEDAYFRPVSKSRSYADWDDAGRAGMGREVRRYDDDMSRLEAEFRDSLLMPMPAGNMNERDHRTEQLPGGYETFNKERHANSGRRSGRDGKPVDFNEATQEYNYKREQTLNDDRRRR
B4: IFB-1 (protein, UniProt Q19289 1-589)
chain: MSSHKESSEYEMQYRSTIQPRTAVRSQSRQSGNYVSGGNGAGSGGRVLKMVTEMGSATVGGISPALSANAAKSFLEATDKEKKTLQGLNDRLGNYIDRVKKLEEQNRKLVADLDELRGKWGKDTSEIKIKYSESLSTARKDIDDAARRKAEVDVKVARHRDDLAEYRSRYEDIQQRRESDREKISQWTNAIADAQSEVEMLRARFKQLTDEEKRVTADNSRIWEELQKARSDLDDETIGRIDFQNQVQTLMEELEFLRRVHEQEVKELQALLAQAPADTREFFKNELALAIRDIKDEYDIIAKQGKQDMESWYKLKVSEVQGSANRANMESTYQRDEVKRMRDNIGDLRGKLGDLENKNSLLEKEVQNLNYQLTDDQRQYEAALNDRDATLRRMREECQTLVAELQALLDTKQMLDAEIAIYRKMLEGEETRVGLTQMVEQAVKTHSLQQQENTDSTRSVRGEVSTKTTFQRSAKGNVTISECDPNGKFIKLENSHRNKDENVGEHKIRRKLDGRREIVYSIPANVVIKPGKNLTIYARDQGGINNPPESLVFDGENTWGIGANVVTSLVNKDGEERATHTQKTIQSGQ
B5: PAT-2 (receptor, UniProt P34446 26-1226)
chain: FNIDTKNVVVHHMAGNYFGYSLDFYHEQKGMPVLVVGAPEAESNNPNLAGIRRPGAVYACSVNRATCREVHVDKMKGNLKKLNGSHLVPIEEKSHQFFGATVRSNDKHDKIVVCAPKYTYFYSKFEVIEPVGTCFYAENGFDNAEEFSSCKQEPARHGRHRLGYGQCGFSAAVPGKKNQNRVFIGAPGVWYWQGAMFSQNIKNQTDRPNTEYGSKEYDHDMMGYSTATGDFDGDGIDDIVAGVPRGNDLHGKLVLYTSKLKMMINLTDEVSTQHGQYCGGSVAVADVNKDGRDDIIMGCPFYTDYGSVKDAKTQERKPQYDVGKVIVMLQTAPGVFGKQIAVVGDDQWGRFGHAVAAAGDLNLDGYNDVIVGAPYAGKNKQGAVYVIHGSKDGVRELPTQKIEGANIGHGNIKSFGFSLTGNEDVDGNGMPDIAVGAWKSGNAAVLLTKPVVTVTGQTEPESALISVEDKNCDVDGKLGKQACKHINTCFKYEGKGDTPNDLEFDLRFNLDDHSPEPRAYFLQKDVKSDRSIKVAQGSKTRDHPSSIEQRVRLEKGRQKCFRHRFFASSTMKDKLSPIHWSVNYTYVESKTGKLRGDKLEPAIDTTVPLSFQNKINIANNCGKDDLCVPDLKVTAVADREKFLLGTQDNTMLINVTVQNGGEDSYETKLYFDVPQGFEYGGIESVGGDGSKSAPACSPTSDEPDSDGKWTFACDLGNPLPANKVVSSVVRVTASSDKPPLAPISINAHVNSSNDEEAHTVADNKVTFTIPVDFKNQLSLNGRSNPEQVDFSMTNKTRVDAFDDNEIGPVVSHLYQISNRGPSEVDSATLDIFWPSFSTEGGHLLYIITEPVVNPPNKGRCRVKQLQNVNPLNLRITNEHVPTEPPVAKTPNEYSREEDDESYEDETTTQSQSTRHQSTQHQTHHQSGPVHVYEKDEEKIRQNTGNWQYVEDKKKKGDYEYIPDDQEYDGDDFEEEDDEDFDRAGSKRVKRNPTPKKKKKGGEHRGEPRSDKARFSDLREAVKLSKEAGGVVDYKGPLSRASVDCNSLRCTHIECDIYDLKEDEFVLVEIFSRLYTNTLVDEKNPGGDISSLALARVTSTKYNLPHKPTLITAVSTNMNAIASEEGRDLPWWLYLLAILIGLAILILLILLLWRCGFFKRNRPPTEHAELRADRQPNAQYADSQSRYTSQDQYNQGRHGQML
B6: DLG-1 (protein, UniProt G5ECY0 1-967)
chain: MSHESSEKAHKAIENVEDYCQTLTRHGNEELRTNLERVITTFKSNLMHSLLDIHDLYEQTLLSERKSDAEKNMEVRRVIERLEGGPHSYNSRPAATTSTSNYNLSSTTPLISDLRDRGGFSYLNGGGLGNGLGNGLGNGLLSSPYNSSSTHYLHERQRQTSHDGTWRETTTRTVDTPSGLERRVVEHTGVIDDHGRKWELENIVLEKGHTGLGFSITGGMDQPTEDGDTSIYVTNIIEGGAALADGRMRKNDIITAVNNTNCENVKHEVAVNALKSSGNVVSLSLKRRKDEAFLPIGGNFGGSTSYLRSGVTPSVSAGNLQHAIHSPSAPIHPPPPPPVHHGSLSQLSVGQYRSTRPNTSVIDLVKGARGLGFSIAGGQGNEHVKGDTDIYVTKIIEEGAAELDGRLRVGDKILEVDHHSLINTTHENAVNVLKNTGNRVRLLIQQGTGAIFNDSASQQFMPTTPILRPSSVQDYNRSQMGSQSHLSYGGPLNTSYSSQAPIAIPLEPRPVQLVKGQNGLGFNIVGGEDNEPIYISFVLPGGVADLSGNVKTGDVLLEVNGVVLRNATHKEAAEALRNAGNPVYLTLQYRPQEYQIFESKIEKLRNDVIAQSRMGTLSRKSEYVRALFDYDPSRENSVAPHRSMGFNYGDILHIINSSDDEWWTARKVHENGEETAEGVIPSKKRVEKRERLRRKQVNFNSGSQSLGRNSSTTGLENRRGSRSQLSFSRKFPFVKSTDRLNDLNEESSNVAEEPVWSYQAVEQQAINYVRPVIILGALKDRINDELVNRDPSKFSSCVPHTSRPPREGEVNGRDYYFVNKHNMEEDVKNNLFIEAGQFQNNLYGTSIQSVRDVANQGRHCILDVSGNAIRRLQSNANIQPISIFIKPSSAQQILELDSQLATNRQDDRAMSGEEAQAQYSRCHRIEQTFGDLFTQEISNVHSANDVLSKVYSIISRESQTPIWVPRH
B7: IMA-2 (protein, UniProt P91276 1-531)
chain: MTLTETSLSHNAEEGKDEGGRLQQYKNLTKHEELRRRRTECSVEIRKQKGADMMMKRRNIVDVDEGGNSESELEEPEKISHQQSSTRLSNDEIRAILSNNPSEDDMVRCFESLRKSLSKTKNPPIDEVIHCGLLQALVQALSVENERVQYEAAWALTNIVSGSTEQTIAAVEAGVTIPLIHLSVHQSAQISEQALWAVANIAGDSSQLRDYVIKCHGVEALMHLMEKVDQLGDSHVRTIAWAFSNMCRHKNPHAPLEVLRVLSKGLVKLVQHTDRQVRQDACWAVSYLTDGPDEQIELARESGVLPHVVAFFKEAENLVAPALRTLGNVATGNDSLTQAVIDLGSLDEILPLMEKTRSSSIVKECCWLVSNIIAGTQKQIQAVLDANLLPVLINVLKSGDHKCQFEASWALSNLAQGGTNRQVVAMLEDNVVPALCQALLQTNTDMLNNTLETLYTLMLTVQNGYPHKVDILHDQVEENGGLDSLERLQESQSEQIYTQAYRIITQFFTDDDAGEKESHENADPQDNKWSF
B8: IMA-3 (protein, UniProt Q19969 1-514)
chain: MSSNRQAYYKNNAKEQIGKEKRNEEVVSIRKDKREEAISKRRNINTQIEDDSETSTTPPGPFDANLLRLTVAAAQSSDPAEQLTAVQQARKMLSTDRNPPIDDLIGSGILPVLVQCLSSTDPNLQFEAAWALTNIASGTSEQTQAVVNAGAVPLFLQLLSCGNLNVCEQSVWALGNIIGDGPHFRDYCLELGILQPLLQFINPEIPIGFLRNVTWVIVNLCRCKDPAPSPAVVRTILPALSLLIHHQDTNILIDTVWALSYLTDGGNEHIQMVIEAQVVTHLVPLLGHVDVKVQTAALRAVGNIVTGTDEQTQLVLDSGVLRFMPGLLAHYKEKINKEAVWFVSNITAGNQQQVQDVFDAGIMPMIIHLLDRGDFPTQKEAAWAISNVTISGRPNQVEQMVKLGVLRPFCAMLSCTDSQIIQVVLDGINNILKMAGEAAEQVTSEIEECGGLDKIENLQNHENEDIYKLAFEIIDNFFSSDDETGNVEGAQSSAFGGDVPPVPDAPNGGWNFGK

Legend:
[1] = molecular target: P_(hyp7)::PTPN-22::TurboID (C. elegans) (UniProt Q95Y26); test: proximity labelling; P_(hyp7)::PTPN-22::TurboID from a multicopy array in mixed-stage worms at 25°C, N2 as control, three technical replicates; RIPA lysate on streptavidin-coated magnetic beads at 4°C for 16 hours, on-bead digestion, DIA LC-MS/MS; enriched ≥2-fold, adjusted p <0.05
[2] = molecular target: P_(hyp7)::PTPN-22::TurboID (C. elegans) (UniProt Q95Y26); test: as above; remark: listed apart in the source
[3] = molecular target: PTPN-22::TurboID (C. elegans) (UniProt Q95Y26); test: proximity labelling; endogenously tagged PTPN-22::TurboID in mixed-stage worms at 22°C, N2 as control, four replicates; RIPA lysate on streptavidin-coated magnetic beads 1 hour at room temperature, on-bead digestion, DIA LC-MS/MS; enriched ≥2-fold, adjusted p <0.05

Row | Molecule | binding [1] | binding [2] | binding [3]
1 | GSNL-1 (from UniProt Q21253 1-475) | binds |  | 
2 | B1 |  | binds | binds
3 | B2 |  | binds | binds
4 | B3 |  | binds | 
5 | B4 |  | binds | 
6 | B5 |  | binds | 
7 | B6 |  | binds | 
8 | B7 |  |  | binds
9 | B8 |  |  | binds
